Source: doi:10.1101/220798
These are yes or no findings as the source states them, for the method shown.

Biological target: T1, wild type Sse1 (yeast Hsp110) (yeast), P32589
T1 chain: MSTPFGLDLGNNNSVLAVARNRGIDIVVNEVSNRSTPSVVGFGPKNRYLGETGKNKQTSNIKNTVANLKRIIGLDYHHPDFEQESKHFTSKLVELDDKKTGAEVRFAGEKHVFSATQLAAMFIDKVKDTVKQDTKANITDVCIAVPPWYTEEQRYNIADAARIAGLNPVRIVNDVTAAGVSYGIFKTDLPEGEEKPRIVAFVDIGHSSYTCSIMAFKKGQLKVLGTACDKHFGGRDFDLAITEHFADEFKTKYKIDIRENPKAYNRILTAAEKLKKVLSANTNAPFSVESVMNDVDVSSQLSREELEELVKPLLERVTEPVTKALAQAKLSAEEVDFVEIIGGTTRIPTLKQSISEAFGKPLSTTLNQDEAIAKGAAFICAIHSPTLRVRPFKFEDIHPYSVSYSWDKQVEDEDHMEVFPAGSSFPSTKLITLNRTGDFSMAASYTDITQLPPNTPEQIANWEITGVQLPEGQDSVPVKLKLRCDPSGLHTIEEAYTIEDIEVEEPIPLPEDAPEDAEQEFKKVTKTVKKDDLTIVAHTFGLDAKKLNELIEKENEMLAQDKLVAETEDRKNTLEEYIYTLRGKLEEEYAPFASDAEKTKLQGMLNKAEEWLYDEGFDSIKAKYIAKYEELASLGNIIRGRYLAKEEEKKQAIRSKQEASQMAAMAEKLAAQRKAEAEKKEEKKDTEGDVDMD
Assay: SAXS
Conditions: remark: other sources report otherwise

B1: wild type Sse1 (yeast Hsp110), P32589 1-693 (protein)
chain: T1 chain
**Q.** Which binding does the source give for B1 here?
**A.** Its binding is “no binding”.
